Test system: ct-DNA–EB system
Experiment: Ethidium bromide–ct-DNA displacement, time-resolved fluorometry (TCSPC)
Format: binding, calf
Conditions: cct-DNA 20 µM, cEB 5 µM, pH 7.40

Row | SMILES | amplitude α1 (ccomplex/cct-DNA 1.00) | amplitude α2 (ccomplex/cct-DNA 1.00) | average lifetime τave (ccomplex/cct-DNA 1.00) [ns] | lifetime τ1 (ccomplex/cct-DNA 1.00) [ns] | lifetime τ2 (ccomplex/cct-DNA 1.00) [ns] | amplitude α1 (ccomplex/cct-DNA 2.00) | amplitude α2 (ccomplex/cct-DNA 2.00) | average lifetime τave (ccomplex/cct-DNA 2.00) [ns] | lifetime τ1 (ccomplex/cct-DNA 2.00) [ns] | lifetime τ2 (ccomplex/cct-DNA 2.00) [ns] | amplitude α1 (ccomplex/cct-DNA 4.01) | amplitude α2 (ccomplex/cct-DNA 4.01) | average lifetime τave (ccomplex/cct-DNA 4.01) [ns] | lifetime τ1 (ccomplex/cct-DNA 4.01) [ns] | lifetime τ2 (ccomplex/cct-DNA 4.01) [ns] | amplitude α1 (ccomplex/cct-DNA 6.01) | amplitude α2 (ccomplex/cct-DNA 6.01) | average lifetime τave (ccomplex/cct-DNA 6.01) [ns] | lifetime τ1 (ccomplex/cct-DNA 6.01) [ns] | lifetime τ2 (ccomplex/cct-DNA 6.01) [ns] | other results
1 | Cc1c(C)c(C)[c-](C)c1C.O=C(O)[C@H]1CCCC[NH+]1Cc1cc(Cl)c2cccnc2c1[O-].[Cl-].[Cl-].[Rh+3] [RhCp*–HQCl-D-hPro, [RhCp*(HQCl-D-hPro)Cl]Cl] | 0.651 | 0.349 | 8.69 | 1.67 | 21.76 | 0.656 | 0.344 | 8.51 | 1.65 | 21.58 | 0.731 | 0.269 | 6.96 | 1.64 | 21.44 | 0.935 | 0.065 | 2.83 | 1.60 | 20.42 | amplitude α1 (ccomplex/cct-DNA 10.02): 0.995; amplitude α2 (ccomplex/cct-DNA 10.02): 0.005; average lifetime τave (ccomplex/cct-DNA 10.02): 1.69 ns; lifetime τ1 (ccomplex/cct-DNA 10.02): 1.59 ns
2 | Cc1ccc(C(C)C)cc1.O=C(O)[C@H]1CCCC[NH+]1Cc1cc(Cl)c2cccnc2c1[O-].[Cl-].[Cl-].[Ru+2] [RuCym–HQCl-D-hPro, [RuCym(HQCl-D-hPro)Cl]Cl] | 0.645 | 0.355 | 8.80 | 1.67 | 21.78 | 0.656 | 0.344 | 8.47 | 1.63 | 21.53 | 0.656 | 0.344 | 8.42 | 1.63 | 21.37 | 0.666 | 0.334 | 8.17 | 1.66 | 21.15 | amplitude α1 (ccomplex/cct-DNA 10.02): 0.916; amplitude α2 (ccomplex/cct-DNA 10.02): 0.084; average lifetime τave (ccomplex/cct-DNA 10.02): 3.13 ns; lifetime τ1 (ccomplex/cct-DNA 10.02): 1.59 ns; lifetime τ2 (ccomplex/cct-DNA 10.02): 19.99 ns; amplitude α1 (ccomplex/cct-DNA 15.03): 1.000; amplitude α2 (ccomplex/cct-DNA 15.03): 0.000; average lifetime τave (ccomplex/cct-DNA 15.03): 1.57 ns; lifetime τ1 (ccomplex/cct-DNA 15.03): 1.57 ns
